Measurements reported in PubChem BioAssay AID743454 (Peter MacCallum Cancer Centre, 2014)
Purpose: 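Search for knock-downs that restore vorinostat killing in resistant colon cancer cells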 (primary screen). System: human HCT116-VR colon cancer cells, selected for vorinostat resistance. Reagent: siRNA pool against human genes, 40 nM siRNA pool. Duration: vorinostat for 24 h, read-out about 72 h after transfection. Conditions: vorinostat at 2.5 µM final. Measurement: 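Two measures, CellTiter-Fluor viability and luminescent caspase 3/7 activity, each as fold change against same-plate mock wells, mean of duplicates, then screen-wide robust z-score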. Direction: viability robust z-score: higher = more viable cells than screen typical; caspase robust z-score: higher = more caspase 3/7 activity than screen typical. Active means: 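a knock-down is a hit when classed RV1 or RV2 for lowered viability, or CA1 or CA2 for caspase activation; those lethal without drug were dropped; hits were retested singly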.
Shown is an unselected part of about 18,000 deposited reagents. In the full data, 450 (2.5%) were called active. 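Single biological run; no consistent viability z cut-off exists, so the class columns, not z-scores, define the calls.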 Entries without a mark were called inactive. Reagent sequences are not shown.

The opening 2 records as a preview:
| viability hit class | caspase hit class | viability robust z-score | caspase robust z-score | gene symbol |
| --- | --- | --- | --- | --- |
| no change | no change | -0.08 | -0.24 | PLXDC2 (GeneID 84898) |
| no change | no change | 0.14 | 0.29 | C4orf50 (GeneID 389197) |

The list itself, from the first entry:
| viability hit class | caspase hit class | viability robust z-score | caspase robust z-score | gene symbol |
| --- | --- | --- | --- | --- |
| no change | no change | -0.08 | -0.24 | PLXDC2 (GeneID 84898) |
| no change | no change | 0.14 | 0.29 | C4orf50 (GeneID 389197) |
| no change | no change | 0.26 | 1.05 | NARS2 (GeneID 79731) |
| no change | no change | 0.63 | -0.4 | PRR23E (GeneID 285311) |
| no change | no change | -1.54 | 3.59 | SLC6A16 (GeneID 28968) |
| no change | no change | 0.4 | 2.74 | IDH1 (GeneID 3417) |
| no change | no change | -0.2 | 1.54 | REDIC1 (GeneID 283461) |
| no change | no change | -0.58 | -1.44 | FGG (GeneID 2266) |
| no change | no change | -3.86 | 2.85 | SMU1 (GeneID 55234) |
| no change | no change | 1.43 | -0.74 | PAPOLB (GeneID 56903) |
| no change | no change | -0.95 | 2.75 | B9D1 (GeneID 27077) |
| no change | no change | -1.5 | 0.03 | TXNDC12 (GeneID 51060) |
| no change | no change | 0.82 | 0.26 | STXBP3 (GeneID 6814) |
| no change | no change | 1.2 | -0.42 | GPR162 (GeneID 27239) |
| no change | no change | -0.69 | 1.86 | RIC3 (GeneID 79608) |
| no change | no change | 0.75 | -1.02 | ST3GAL6 (GeneID 10402) |
| no change | no change | 0.57 | 0.53 | GP9 (GeneID 2815) |
| no change | no change | -1.11 | 0.26 | HEATR1 (GeneID 55127) |
| no change | no change | 0.08 | 1.26 | PCDHGB3 (GeneID 56102) |
| no change | no change | 0.04 | -0.78 | ASPSCR1 (GeneID 79058) |
| no change | no change | 1.34 | 2.72 | TMCC2 (GeneID 9911) |
| no change | no change | 0.7 | 0.37 | XPO7 (GeneID 23039) |
| no change | no change | -0.02 | 4.39 | CCDC97 (GeneID 90324) |
